Our source for the binding values is article PMC10265093.

Protein sequences, listed by entry. Tags and fused reporters are not part of them.
UniProt Q9NQL2: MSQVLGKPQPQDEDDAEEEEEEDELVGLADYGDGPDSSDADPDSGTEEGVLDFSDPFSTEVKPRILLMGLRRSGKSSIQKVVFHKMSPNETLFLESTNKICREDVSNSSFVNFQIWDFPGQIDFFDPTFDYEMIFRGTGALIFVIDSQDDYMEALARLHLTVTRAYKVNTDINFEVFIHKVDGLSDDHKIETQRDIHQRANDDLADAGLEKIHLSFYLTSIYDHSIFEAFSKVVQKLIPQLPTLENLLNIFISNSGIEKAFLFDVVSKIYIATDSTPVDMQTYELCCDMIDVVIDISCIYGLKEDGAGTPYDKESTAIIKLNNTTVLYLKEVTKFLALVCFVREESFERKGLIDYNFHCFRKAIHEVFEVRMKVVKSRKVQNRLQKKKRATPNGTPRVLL
UniProt P31749: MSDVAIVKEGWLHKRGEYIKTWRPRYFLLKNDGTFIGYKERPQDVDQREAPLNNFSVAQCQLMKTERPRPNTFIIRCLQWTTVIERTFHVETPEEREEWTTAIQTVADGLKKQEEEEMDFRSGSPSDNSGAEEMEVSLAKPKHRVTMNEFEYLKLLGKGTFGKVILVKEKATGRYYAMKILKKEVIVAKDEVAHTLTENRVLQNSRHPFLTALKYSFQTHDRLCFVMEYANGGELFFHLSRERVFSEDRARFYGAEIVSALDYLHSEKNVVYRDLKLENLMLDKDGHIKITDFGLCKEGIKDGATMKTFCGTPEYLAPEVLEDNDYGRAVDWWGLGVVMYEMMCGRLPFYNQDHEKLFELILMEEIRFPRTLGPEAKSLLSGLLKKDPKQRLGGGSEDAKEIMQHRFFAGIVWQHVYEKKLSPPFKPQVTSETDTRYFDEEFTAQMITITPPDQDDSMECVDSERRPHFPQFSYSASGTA
UniProt P31751: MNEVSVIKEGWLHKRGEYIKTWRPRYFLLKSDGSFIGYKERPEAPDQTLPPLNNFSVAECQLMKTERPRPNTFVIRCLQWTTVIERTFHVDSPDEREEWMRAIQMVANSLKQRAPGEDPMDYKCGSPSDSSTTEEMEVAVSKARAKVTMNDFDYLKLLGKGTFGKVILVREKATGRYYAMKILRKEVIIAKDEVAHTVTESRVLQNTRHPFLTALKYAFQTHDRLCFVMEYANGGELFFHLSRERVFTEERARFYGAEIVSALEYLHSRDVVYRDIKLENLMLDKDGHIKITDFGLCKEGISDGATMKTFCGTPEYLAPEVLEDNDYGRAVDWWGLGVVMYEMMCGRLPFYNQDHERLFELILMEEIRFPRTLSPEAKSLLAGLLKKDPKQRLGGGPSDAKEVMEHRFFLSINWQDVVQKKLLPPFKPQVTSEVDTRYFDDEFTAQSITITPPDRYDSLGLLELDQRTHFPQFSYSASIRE
UniProt Q8N122: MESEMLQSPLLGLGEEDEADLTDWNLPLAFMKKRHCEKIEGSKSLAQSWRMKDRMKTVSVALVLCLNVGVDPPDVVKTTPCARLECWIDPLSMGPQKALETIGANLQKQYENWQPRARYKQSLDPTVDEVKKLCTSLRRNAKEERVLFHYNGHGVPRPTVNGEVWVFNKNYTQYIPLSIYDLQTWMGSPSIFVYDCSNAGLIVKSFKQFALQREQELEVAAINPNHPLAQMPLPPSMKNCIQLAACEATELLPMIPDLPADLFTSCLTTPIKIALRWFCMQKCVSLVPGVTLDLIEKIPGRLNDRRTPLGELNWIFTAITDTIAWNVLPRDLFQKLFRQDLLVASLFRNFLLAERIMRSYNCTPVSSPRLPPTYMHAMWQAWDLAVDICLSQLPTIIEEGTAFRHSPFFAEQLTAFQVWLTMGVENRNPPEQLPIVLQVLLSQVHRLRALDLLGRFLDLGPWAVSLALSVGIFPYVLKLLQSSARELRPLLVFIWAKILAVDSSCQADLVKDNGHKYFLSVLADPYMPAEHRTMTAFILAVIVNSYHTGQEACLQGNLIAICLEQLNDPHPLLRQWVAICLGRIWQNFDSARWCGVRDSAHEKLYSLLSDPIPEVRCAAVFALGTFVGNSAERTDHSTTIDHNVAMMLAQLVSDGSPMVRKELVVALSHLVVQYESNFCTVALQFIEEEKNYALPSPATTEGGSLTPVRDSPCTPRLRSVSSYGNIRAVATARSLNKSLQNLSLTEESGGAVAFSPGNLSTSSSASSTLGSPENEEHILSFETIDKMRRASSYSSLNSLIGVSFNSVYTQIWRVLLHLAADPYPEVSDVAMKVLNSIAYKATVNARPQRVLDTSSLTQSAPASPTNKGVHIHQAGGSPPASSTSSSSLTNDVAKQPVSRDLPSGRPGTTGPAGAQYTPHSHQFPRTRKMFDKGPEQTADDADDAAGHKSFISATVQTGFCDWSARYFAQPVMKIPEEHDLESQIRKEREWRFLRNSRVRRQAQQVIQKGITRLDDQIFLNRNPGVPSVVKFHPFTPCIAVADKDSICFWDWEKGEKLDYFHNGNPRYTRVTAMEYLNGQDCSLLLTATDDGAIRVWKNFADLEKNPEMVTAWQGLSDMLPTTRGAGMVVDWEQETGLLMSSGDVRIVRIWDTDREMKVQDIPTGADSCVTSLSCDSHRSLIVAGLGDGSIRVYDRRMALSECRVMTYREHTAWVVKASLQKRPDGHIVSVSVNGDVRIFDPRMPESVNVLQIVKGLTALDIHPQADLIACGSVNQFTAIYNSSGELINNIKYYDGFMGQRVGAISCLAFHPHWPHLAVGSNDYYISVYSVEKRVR
UniProt Q9Y243: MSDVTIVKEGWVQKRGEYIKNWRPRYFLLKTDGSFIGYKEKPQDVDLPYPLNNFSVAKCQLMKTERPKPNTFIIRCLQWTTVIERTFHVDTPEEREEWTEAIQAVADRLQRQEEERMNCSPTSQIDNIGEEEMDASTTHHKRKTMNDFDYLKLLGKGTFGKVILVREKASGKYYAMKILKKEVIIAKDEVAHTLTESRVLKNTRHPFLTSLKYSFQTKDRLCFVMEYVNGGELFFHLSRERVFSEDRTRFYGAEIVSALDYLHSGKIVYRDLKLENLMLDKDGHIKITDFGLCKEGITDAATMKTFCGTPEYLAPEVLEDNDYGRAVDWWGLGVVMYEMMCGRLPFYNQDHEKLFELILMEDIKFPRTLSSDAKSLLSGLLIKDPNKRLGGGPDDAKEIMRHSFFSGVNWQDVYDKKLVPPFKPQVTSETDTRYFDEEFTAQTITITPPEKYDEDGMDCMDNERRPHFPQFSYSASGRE
UniProt Q5VZM2: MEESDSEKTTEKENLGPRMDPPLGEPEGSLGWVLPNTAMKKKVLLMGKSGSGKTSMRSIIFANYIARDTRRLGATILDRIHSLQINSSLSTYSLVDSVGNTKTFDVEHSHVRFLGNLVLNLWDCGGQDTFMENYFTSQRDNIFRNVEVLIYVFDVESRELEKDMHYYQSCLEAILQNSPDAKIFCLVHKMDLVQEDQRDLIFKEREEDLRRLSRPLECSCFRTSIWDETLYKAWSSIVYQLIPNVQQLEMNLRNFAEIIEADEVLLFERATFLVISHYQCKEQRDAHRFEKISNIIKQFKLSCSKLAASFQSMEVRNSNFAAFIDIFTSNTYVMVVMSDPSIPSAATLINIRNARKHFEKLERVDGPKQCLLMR

The target in assay [1] is Flag-RagD (UniProt Q9NQL2). As to the kind of experiment: co-IP; supplementary figures (S1D,E; S2C-J; S3A-C) whose legends were not shown; constructs and cells not stated.
For assay [2], the target named is endogenous AKT1 (human (endogenous in HEK293T and HCT116)) (UniProt P31749). As to the kind of experiment: co-IP; endogenous proteins; endogenous AKT or RagC immunoprecipitated with anti-AKT or anti-RagC polyclonal antibody; HEK293T (Figure 2H) or HCT116 (Figures 3F, 4D); cells starved of amino acids and serum 24 h, then insulin 30 min.
In assay [3] the target is T1, Flag-FLCN (UniProt Q8NFG4).
T1 sequence: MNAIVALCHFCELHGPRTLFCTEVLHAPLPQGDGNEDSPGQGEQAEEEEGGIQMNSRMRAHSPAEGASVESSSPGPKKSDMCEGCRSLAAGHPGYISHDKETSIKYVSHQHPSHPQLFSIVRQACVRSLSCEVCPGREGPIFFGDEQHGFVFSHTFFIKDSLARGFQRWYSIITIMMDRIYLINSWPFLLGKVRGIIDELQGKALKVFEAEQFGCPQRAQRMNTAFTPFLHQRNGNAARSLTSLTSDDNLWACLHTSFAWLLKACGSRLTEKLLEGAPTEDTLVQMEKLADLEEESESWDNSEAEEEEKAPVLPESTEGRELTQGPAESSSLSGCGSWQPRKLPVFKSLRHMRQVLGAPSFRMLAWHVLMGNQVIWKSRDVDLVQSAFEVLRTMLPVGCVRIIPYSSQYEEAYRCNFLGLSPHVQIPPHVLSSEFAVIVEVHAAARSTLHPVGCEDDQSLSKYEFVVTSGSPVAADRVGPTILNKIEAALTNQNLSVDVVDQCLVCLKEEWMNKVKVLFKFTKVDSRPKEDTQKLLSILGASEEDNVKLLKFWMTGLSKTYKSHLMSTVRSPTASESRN
The assay is described as follows: co-IP; both partners tagged and overexpressed in transfected HEK293T cells; CHAPS lysis buffer (40 mM HEPES pH 7.4, 120 mM NaCl, 1 mM EDTA, 0.3% CHAPS); HA-conjugated beads or M2 beads 2-3 h; immunoblot; in some panels cells starved of amino acids and serum 24 h, then insulin. On the technique in general: In western blotting, separated proteins are transferred to a membrane and probed.

For assay [4], the target named is Flag-RagD (UniProt Q9NQL2). The assay is described as above.
For assay [5], the target named is T1, Flag-FLCN. As to the kind of experiment: pull-down; in vitro; immunoprecipitates (HA and Flag antibodies) prepared from lysates of HEK-293T cells; bound protein detected by Western blot; both purified.
In assay [6] the target is T1, Flag-FLCN. As to the kind of experiment: co-IP; supplementary figures (S1D,E; S2C-J; S3A-C) whose legends were not shown; constructs and cells not stated.
Assay [7] addresses Flag-RagD (UniProt Q9NQL2). As to the kind of experiment: co-IP; Flag-tagged Rag overexpressed in HEK293T, endogenous Raptor detected; cells starved of amino acids and serum 24 h, then insulin 0-30 min, alone or with MK2206 or Torin1.

These are yes or no findings as the source states them, for the method shown. For some of these results: Binding seen in cells or lysates may run through a third protein. Some binding calls cover weakened binding; strength is not graded here. For some of these results: Where a sequence is shown, tags or fusion partners need not be part of it.

Turning to “AKT2 (from UniProt P31751 1-481) (enzyme)”, the binding result with Flag-RagD [1] is reported as “binds weakly”.
In the case of “endogenous RagD (from UniProt Q9NQL2 1-400)”, the binding entry in assay [2] is reported as “binds”.
For the substance “HA-AKT1 (from UniProt P31749 1-480) (enzyme)”, the binding result in the assay with Flag-FLCN [3], with Flag-RagD [4], with Flag-FLCN [5], with Flag-FLCN [6] and in the assay with Flag-RagD [1] was “binds” each time.
Take “endogenous regulatory-associated of mTOR (Raptor) (from UniProt Q8N122 1-1335)”: the binding entry with Flag-RagD [7] is listed as “binds”.
Turning to “AKT3 (from UniProt Q9Y243 1-479) (enzyme)”, the binding entry in the assay with Flag-RagD [1] is listed as “binds weakly”.
For RagB (from UniProt Q5VZM2 1-374), the binding entry in the assay with Flag-RagD [1] was “binds”.
